Among all 52,000 sequences or so, about 210 (0.4%) were called active.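 The calls were made as follows: active = gene whose silencing raises cell survival under the drug, median off-target-corrected z-score across its silencing RNAs 2 or more; inactive = the rest.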 The list shows a part of the results.
Experiment: Resistance to Poly (ADP-Ribose) Polymerase inhibitor: Gene Identification via Genome-wide siRNA Screen
Details: mouse BRCA2 R2336H ES cells, olaparib, CellTiter-Glo viability; stronger effect = higher value
Outline: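 Mouse BRCA2 R2336H ES cells were reverse-transfected with siRNA (20 nM final), treated at 48 h with 500 nM olaparib, and read by CellTiter-Glo after 72 h. Scores: MAD-based z per siRNA, median per gene, seed off-target correction.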

Sequence	z-score
CCCUCUACUAUGCGUUCUATT against Otop3	inactive: -1.12
GGACAAUGUGAUGAAGAUUTT against Fgfr3	inactive: 2.61
AUAACUACGUAUGUGAUGUTT against Olfr885	inactive: 0.959
CGCGAGUUAUUUCUCAUAUTT against Pik3cb	inactive: 0.53
GGUGAAGAAGAUGACAUUATT against Spock3	inactive: 0.698
GGAUGACAGAGAUCUCACATT against Gsh1	inactive: 1.82
GCUACAAGAGAACAAUAGCTT against Lcn2	inactive: 0.781
GGAAUUCAACUUCUUCAGUTT against Il8ra	inactive: 0.96
GCAAUCUGUCCUUCUGUGATT against Olfr1133	inactive: 1.71
GGCUGUCCAGACUAGUUCUTT against BC040823	inactive: -1.97
GCACCUAGACAAUAACUUATT against 15-Sep	inactive: 0.413
GGACAGAAGUGCAACAUCUTT against Dio1	inactive: 1.12
ACAAAUCCACGUGCAAUGUTT against Cyp2d9	inactive: 0.412
CGUGAGAAAGCCAAUCCCUTT against 0610005I04	inactive: 0.988
GCGUGUUCGGUUUACCAAGTT against Eif2c1	inactive: -0.745
GGCUUAAGGACAAGAAGAUTT against Gsn	inactive: -1.9
GGCUUUCGGUCUCUUAGUCTT against BC052046	inactive: -0.395
CCCUGGUCGUCAUUUUCAATT against 4932411A10Rik	inactive: -0.146
GGACACCUCCAAGAAGAGUTT against Ap1s1	inactive: 0.781
GCUGAAACAAAGGGUAUAUTT against Map2k7	inactive: -3.33
GGGCAAGGAUUCCCUGUAUTT against Rpl36al	inactive: -0.491
GGAAUUUAGAAAAUGUGACTT against V1re6	inactive: -0.218
CCCGUAACCAUUUACUGGUTT against Tyro3	inactive: 0.125

Sequence	z-score
GCGUCAAAAUUAUCCGAAATT against 1110007F05Rik	inactive: 1.88
GCUUCCAAGAUGGAACUACTT against Psmb10	inactive: 1.16
GGAGUGAUGAUCAAAAUCCTT against 1110051B16Rik	inactive: 0.705
GCCGAGAAUUAUAUUUAACTT against Itga2	inactive: 0.48
GGUUUCCUAGAGAGUAAAATT against 4930521E07Rik	inactive: 1.04
CCCUUAAAUCUGGAAGCAGTT against 2700083E18Rik	inactive: 0.348
GGUUUUUCUAGCUACAUUATT against Slc17a5	inactive: 1.4
CCAUGUCUAUGAGUGUAGATT against 2310057J16Rik	inactive: -0.0866
GGCAGUGAUAUACAGGUGGTT against Ptpn14	inactive: 0.964
GCACUAUGAACGGAAGUUGTT against Map3k12	inactive: 0.155
CCAAGGCUUGUGGCCUUAUTT against Comtd1	inactive: -2.51
GGGAGGGUCUAUUGUUAAUTT against BC009118	inactive: 0.737
GGCCUUCUCUGUCUUCUACTT against Olfr234	inactive: 0.203
GGAGGAGAGGAGAAUAGCATT against Atp5k	inactive: 0.394
GUGCUUGAUCUCUUCGAUGTT against Ppt2	inactive: 0.582
GGAGAACAAAGUCCACACGTT against AW125753	inactive: -0.114
GGUCUUUCUGACGCAGACUTT against G1p2	inactive: -1.54
GCCUAAGGAUGAGUUUCAATT against 1110020P15Rik	inactive: 1.19
GGCUGUGGUCUUCAUUGAATT against Tpcn2	inactive: -0.432
GGUUGUUAUGGUCUCAUAUTT against 2610040E16Rik	inactive: -0.586
GGGCUAAGUACCAAACUCATT against Ly6e	inactive: -1.94
GGGAAACAAAAAAGAUUUCTT against Ptpn13	inactive: 0.393
CCUACCGAGGUCAAGAAUUTT against Asf1a	inactive: -1.06

Sequence	z-score
GCUUCAAGCCUGAGAGUAUTT against Gm443	inactive: -2.56
GGACUCAUCUUUAUUAUUCTT against Olfr393	inactive: 0.449
GGAUCAGAUUCUCUUCUUCTT against Gypa	inactive: 0.378
GGAAAGACCACAUUAUUAATT against Orc4l	inactive: -1.43
GCUCAGUACUCAGAAGUGCTT against Olfr578	inactive: 0.0755
GGUUGAAGUUGAAGUUUAATT against Top3a	inactive: -0.517
GCUAGUUGAGGACUGAUAUTT against Chrna4	inactive: 0.861
GGCUUUCGCUAGAAAACUCTT against Sftpc	inactive: 0.15
GGCGAUUUACAACUUUGGATT against Hist3h2a	inactive: 0.701
CCAAUUAUGUGAGAAGUGATT against Snx24	inactive: 0.487
CGAAAUACCGAUGACUGGGTT against 4933416E05Rik	inactive: -0.709
GCAUCAAAUUUUGAUAAGCTT against BC037674	inactive: 0.519
GGUCCAUAAAGAAACCAUATT against Zfp207	inactive: -2.51
GGAUACUUUUCUUCUAAGATT against Krtap15	inactive: 0.47
GGAAAUCCCGGGAUGUCAGTT against Pnliprp2	inactive: 0.493
CUUUGUACUAUGGUUCAAUTT against Olfr1010	inactive: 0.195
GGCUGUUUCCAAAAAGAAGTT against Hist1h1b	inactive: -0.335
GGCUCUUAUUUUUGUAAAGTT against Rgl1	inactive: 0.849
GGAGCUGCGCUUGACAUUGTT against Neil1	inactive: 0.669
AGAACAGAGGGCUACCUUGTT against Ly6g6e	inactive: -0.705
CCUGGACACGAUUUCAGAGTT against Rbm6	inactive: 0.57

Look-ups from above:
z-score, GGACUCAUCUUUAUUAUUCTT against Olfr393 reads inactive: 0.449
z-score, GGAGCUGCGCUUGACAUUGTT against Neil1 reads inactive: 0.669

Source: PubChem BioAssay AID1347423 (Functional Genomics Laboratory (NCATS/FGL), 2020)
